Data taken from the supplement of paper PMC10849652.
This is one part of the list.

Protein sequences, listed by entry. Tags and fused reporters are not part of them. Lines headed by an entry give the natural chain unless they say otherwise; changes in a name come on top.
UniProt Q86Y39, whole entry, looked up: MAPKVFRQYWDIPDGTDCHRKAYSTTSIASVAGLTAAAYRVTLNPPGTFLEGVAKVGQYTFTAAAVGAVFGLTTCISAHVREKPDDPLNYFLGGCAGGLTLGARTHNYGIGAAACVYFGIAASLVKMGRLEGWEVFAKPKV
UniProt Q15788: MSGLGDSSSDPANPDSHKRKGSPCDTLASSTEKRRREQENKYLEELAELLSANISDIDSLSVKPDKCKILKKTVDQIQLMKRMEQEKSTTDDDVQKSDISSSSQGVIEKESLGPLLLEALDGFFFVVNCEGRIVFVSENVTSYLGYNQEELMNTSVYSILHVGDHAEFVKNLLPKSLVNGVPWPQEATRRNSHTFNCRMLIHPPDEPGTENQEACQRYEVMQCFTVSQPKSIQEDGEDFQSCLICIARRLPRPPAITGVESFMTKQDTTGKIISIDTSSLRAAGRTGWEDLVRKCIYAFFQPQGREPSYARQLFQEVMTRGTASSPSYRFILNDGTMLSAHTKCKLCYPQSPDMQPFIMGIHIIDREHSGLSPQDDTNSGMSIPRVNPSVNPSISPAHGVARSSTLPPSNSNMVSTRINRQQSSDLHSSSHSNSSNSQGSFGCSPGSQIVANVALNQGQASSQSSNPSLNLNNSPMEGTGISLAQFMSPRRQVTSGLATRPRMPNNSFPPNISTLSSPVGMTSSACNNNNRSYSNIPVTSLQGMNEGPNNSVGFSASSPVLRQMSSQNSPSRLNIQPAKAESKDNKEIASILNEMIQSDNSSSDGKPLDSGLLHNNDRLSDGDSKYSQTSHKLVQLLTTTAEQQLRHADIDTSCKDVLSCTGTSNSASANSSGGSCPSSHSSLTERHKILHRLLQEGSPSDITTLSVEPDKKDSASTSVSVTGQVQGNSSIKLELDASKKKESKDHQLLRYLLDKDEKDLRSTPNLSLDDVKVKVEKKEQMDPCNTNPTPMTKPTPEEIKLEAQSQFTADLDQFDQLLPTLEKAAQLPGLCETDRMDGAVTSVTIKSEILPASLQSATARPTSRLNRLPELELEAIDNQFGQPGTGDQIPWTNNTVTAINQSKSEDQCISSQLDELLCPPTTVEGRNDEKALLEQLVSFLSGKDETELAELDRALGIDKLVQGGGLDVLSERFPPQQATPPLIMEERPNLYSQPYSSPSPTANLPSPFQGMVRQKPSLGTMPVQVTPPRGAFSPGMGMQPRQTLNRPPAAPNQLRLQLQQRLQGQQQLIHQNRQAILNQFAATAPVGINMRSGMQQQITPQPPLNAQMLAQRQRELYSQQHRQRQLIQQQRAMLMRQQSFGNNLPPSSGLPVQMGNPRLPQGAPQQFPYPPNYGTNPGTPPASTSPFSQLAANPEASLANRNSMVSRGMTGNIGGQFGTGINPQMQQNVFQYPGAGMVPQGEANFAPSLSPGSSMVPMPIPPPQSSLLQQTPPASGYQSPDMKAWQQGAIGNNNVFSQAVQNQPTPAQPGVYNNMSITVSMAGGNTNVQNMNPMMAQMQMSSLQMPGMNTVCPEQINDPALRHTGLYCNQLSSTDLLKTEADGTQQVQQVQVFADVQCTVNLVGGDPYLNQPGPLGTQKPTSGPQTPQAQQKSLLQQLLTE
UniProt Q6XQN6: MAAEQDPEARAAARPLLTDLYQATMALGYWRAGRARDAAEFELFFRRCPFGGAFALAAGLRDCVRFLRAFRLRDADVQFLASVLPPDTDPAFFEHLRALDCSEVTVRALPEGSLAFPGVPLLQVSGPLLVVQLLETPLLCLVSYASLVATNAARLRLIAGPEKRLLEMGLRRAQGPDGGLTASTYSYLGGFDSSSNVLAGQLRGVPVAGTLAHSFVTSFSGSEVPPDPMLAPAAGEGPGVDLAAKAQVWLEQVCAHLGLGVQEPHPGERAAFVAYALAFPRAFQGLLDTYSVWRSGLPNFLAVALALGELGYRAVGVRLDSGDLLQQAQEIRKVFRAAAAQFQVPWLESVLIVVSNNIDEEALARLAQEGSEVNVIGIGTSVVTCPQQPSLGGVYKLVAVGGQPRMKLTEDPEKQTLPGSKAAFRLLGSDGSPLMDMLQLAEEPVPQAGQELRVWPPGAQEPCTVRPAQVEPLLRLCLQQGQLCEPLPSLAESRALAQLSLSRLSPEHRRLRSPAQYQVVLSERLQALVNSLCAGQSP
UniProt Q147X3: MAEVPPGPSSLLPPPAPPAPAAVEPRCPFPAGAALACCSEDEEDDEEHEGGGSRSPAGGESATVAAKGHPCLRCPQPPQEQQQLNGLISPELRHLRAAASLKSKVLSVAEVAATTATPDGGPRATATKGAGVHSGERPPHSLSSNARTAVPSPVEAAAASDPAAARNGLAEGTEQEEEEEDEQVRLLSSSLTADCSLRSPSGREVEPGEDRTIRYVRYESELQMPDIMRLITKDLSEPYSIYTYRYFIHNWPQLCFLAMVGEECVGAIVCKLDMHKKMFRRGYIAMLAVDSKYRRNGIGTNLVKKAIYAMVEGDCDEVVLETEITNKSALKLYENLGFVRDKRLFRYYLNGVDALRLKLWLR
UniProt Q9UHQ1: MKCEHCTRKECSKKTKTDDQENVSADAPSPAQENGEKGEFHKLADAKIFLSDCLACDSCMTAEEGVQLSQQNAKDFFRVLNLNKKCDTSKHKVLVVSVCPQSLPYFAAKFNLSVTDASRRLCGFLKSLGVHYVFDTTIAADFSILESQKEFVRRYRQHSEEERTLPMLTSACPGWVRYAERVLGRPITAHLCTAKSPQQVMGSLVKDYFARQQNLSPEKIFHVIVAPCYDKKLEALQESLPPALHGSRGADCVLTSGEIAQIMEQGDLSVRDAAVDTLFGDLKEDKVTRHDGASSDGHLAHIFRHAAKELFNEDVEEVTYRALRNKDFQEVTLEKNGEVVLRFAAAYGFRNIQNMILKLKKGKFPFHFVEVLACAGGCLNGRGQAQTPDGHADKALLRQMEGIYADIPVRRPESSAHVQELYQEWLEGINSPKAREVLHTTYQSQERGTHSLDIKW
UniProt Q15843, whole entry, looked up: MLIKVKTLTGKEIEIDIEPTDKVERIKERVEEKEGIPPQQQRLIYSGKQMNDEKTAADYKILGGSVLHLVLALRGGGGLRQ
UniProt Q16718, whole entry, looked up: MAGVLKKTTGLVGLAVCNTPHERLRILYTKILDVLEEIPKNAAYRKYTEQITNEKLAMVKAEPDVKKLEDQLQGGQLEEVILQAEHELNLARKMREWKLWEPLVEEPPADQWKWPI
UniProt Q68D85: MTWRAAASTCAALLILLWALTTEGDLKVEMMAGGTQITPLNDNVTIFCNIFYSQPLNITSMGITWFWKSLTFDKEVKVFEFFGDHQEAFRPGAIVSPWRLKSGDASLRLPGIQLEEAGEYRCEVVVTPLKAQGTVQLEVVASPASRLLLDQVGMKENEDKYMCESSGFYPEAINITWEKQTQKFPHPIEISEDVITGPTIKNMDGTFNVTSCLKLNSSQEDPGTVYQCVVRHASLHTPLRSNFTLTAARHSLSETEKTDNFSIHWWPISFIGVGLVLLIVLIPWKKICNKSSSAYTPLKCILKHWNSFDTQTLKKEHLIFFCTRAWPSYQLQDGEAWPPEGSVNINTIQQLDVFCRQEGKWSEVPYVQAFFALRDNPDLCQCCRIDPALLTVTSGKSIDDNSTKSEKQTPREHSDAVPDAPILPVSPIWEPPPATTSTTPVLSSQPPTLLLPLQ
UniProt Q14CX7, whole entry, looked up: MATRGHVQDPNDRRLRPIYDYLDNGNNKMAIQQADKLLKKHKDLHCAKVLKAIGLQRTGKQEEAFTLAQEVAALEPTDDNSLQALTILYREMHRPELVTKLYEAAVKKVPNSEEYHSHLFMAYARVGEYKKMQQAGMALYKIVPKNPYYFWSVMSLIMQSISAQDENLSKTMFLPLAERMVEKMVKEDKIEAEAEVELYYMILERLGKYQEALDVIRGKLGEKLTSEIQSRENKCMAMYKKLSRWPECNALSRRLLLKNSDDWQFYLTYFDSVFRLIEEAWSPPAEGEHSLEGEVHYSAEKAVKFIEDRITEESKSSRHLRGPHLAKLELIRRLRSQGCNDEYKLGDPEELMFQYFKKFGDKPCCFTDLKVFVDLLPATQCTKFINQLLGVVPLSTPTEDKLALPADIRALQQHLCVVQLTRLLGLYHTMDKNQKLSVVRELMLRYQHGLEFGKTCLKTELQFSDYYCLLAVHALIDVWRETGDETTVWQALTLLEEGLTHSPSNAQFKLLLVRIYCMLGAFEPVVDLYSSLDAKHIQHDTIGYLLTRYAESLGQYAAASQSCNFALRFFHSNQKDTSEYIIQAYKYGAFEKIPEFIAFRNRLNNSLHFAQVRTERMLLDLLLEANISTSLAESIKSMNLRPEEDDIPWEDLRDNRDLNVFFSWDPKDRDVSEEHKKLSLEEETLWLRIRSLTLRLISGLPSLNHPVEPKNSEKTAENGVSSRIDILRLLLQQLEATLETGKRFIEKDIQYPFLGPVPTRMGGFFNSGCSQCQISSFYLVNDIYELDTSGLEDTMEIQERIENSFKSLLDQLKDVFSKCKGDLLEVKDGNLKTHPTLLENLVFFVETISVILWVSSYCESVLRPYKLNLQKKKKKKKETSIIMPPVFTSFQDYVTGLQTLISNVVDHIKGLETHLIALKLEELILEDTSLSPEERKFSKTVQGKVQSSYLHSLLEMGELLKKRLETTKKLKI
UniProt O43676, whole entry, looked up: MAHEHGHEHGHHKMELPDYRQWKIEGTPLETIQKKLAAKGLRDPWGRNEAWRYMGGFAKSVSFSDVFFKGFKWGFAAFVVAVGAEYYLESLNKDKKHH
UniProt Q8NEY1: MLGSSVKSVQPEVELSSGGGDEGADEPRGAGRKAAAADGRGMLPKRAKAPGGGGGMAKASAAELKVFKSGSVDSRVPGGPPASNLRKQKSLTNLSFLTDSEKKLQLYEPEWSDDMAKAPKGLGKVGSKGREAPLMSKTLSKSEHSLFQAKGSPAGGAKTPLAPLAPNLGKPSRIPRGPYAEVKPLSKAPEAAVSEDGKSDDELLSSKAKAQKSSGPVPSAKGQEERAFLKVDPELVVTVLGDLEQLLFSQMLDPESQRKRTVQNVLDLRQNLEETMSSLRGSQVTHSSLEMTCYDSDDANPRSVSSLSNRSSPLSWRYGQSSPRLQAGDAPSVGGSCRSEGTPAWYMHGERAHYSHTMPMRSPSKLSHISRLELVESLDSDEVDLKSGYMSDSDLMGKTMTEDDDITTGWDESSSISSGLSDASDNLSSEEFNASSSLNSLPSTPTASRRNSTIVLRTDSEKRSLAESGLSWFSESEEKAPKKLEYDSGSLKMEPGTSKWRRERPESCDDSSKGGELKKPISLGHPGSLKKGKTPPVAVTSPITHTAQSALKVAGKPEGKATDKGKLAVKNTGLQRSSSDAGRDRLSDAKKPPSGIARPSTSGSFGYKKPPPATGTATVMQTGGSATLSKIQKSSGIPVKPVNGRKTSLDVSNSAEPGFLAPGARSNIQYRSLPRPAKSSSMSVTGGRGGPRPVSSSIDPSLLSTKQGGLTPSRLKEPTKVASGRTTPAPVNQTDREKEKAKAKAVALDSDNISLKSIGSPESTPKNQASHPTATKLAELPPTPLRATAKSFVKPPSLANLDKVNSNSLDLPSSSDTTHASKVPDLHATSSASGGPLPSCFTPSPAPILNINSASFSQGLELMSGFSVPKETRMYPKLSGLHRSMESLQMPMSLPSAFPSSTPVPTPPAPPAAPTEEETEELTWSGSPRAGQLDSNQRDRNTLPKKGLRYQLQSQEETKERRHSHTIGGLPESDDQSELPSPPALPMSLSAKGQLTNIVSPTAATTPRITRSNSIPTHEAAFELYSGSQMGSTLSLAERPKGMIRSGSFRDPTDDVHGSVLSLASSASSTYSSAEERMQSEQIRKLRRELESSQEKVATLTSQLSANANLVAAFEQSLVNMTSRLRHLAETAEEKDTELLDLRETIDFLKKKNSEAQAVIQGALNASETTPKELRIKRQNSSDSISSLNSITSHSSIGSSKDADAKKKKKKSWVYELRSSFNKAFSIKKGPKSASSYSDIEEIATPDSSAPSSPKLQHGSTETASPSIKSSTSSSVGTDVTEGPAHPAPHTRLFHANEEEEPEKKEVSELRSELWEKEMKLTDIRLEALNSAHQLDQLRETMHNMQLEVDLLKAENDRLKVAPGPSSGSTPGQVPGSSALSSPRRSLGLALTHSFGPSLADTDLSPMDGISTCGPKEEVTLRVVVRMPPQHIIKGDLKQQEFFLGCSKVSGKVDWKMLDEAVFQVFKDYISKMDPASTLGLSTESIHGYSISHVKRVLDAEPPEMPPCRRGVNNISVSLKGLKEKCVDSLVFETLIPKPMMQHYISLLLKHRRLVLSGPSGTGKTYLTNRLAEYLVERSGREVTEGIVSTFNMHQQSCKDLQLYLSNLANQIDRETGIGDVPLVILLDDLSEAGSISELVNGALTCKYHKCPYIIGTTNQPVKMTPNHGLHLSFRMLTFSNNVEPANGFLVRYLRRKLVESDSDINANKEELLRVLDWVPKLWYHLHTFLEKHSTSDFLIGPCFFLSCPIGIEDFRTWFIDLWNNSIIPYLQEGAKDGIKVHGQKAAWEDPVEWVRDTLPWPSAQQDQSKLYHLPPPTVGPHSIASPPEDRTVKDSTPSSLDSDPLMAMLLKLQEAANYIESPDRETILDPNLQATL

Compound: c1cn2cc(-c3ccc4cn[nH]c4c3)nc(Nc3ccc(N4CCOCC4)cc3)c2n1 [entospletinib]
Assay: log2 fold change, soluble protein after heating vs DMSO (PISA); higher = thermal stabilisation; K562 cells, 10 uM, 30 min; active = over 0.2 and 3.5 SD of the protein, either way, in both replicates (recomputed)
Summary of the method: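 Values are thermal stability changes relative to control samples and are taken from duplicates. They are stated as log2 fold changes. Before quantification by TMTpro 16plex LC-MS/MS with equalised channel sums, K562 cells at 2×10^6 cells/mL were treated with 10 μM compound for 30 min, heated in aliquots for 3 min across 48°C-58°C, pooled, extracted in PBS with 0.5% NP-40 at 4°C, and centrifuged at 21,000xg for 90 min to give the soluble supernatant.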

log2 fold change, inactive:
NECAP1 (UniProt Q8NC96) -0.035
NBEAL2 (UniProt Q6ZNJ1) -0.165
NAF1 (UniProt Q96HR8) -0.011
NDUFA11 (UniProt Q86Y39) -0.009
NCOR2 (UniProt C9J0Q5) -0.013
N6AMT1 (UniProt Q9Y5N5) -0.005
NAE1 (UniProt Q13564) 0.012
NADSYN1 (UniProt Q6IA69) 0.232
NCOA1 (UniProt Q15788) -0.052
NCBP1 (UniProt Q09161) 0.013
NAP1L5 (UniProt Q96NT1) -0.121
NDUFAF2 (UniProt Q8N183) 0.015
NAPRT (UniProt Q6XQN6) -0.029
NEB isoform 3 (UniProt P20929) -0.03
NDRG3 (UniProt Q9UGV2) -0.029
NAGK isoform 2 (UniProt Q9UJ70) 0.001
NAA30 (UniProt Q147X3) 0.004
NARF (UniProt Q9UHQ1) -0.03
NEDD8 (UniProt Q15843) 0.087
NCOA6 (UniProt Q14686) 0.027
NAGA (UniProt P17050) 0.054
NCCRP1 (UniProt Q6ZVX7) -0.072
NAA15, A0A0B4J1W3 -0.106
NBAS (UniProt A2RRP1) 0.133
NDUFA5 (UniProt Q16718) 0.071
NCR3LG1 (UniProt Q68D85) 0.308
NAA25 (UniProt Q14CX7) 0.012
NDE1 isoform 1 (UniProt Q9NXR1) 0.02
NDUFB3 (UniProt O43676) 0.049
NCLN (UniProt Q969V3) -0.006
NEFH (UniProt P12036) 0.166
NAV1 (UniProt Q8NEY1) -0.008
NDUFS6 (UniProt O75380) 0.125
NAA35 (UniProt Q5VZE5) -0.023
NAA15 (UniProt Q9BXJ9) -0.049

Taken from above (2 entries):
log2 fold change, inactive:
NAV1 (UniProt Q8NEY1) -0.008
NDUFS6 (UniProt O75380) 0.125
